Measured values from patent publication US20100303918A1, “COMPOSITIONS AND METHODS FOR TREATING ASTHMA AND OTHER LUNG DISORDERS” (Revalesio Corporation, priority 2007, published 2010).
For at least one compound, name, drawing or mass did not settle the structure.

System: Brown Norway rat ovalbumin sensitization model
Assay: Brown Norway rat ovalbumin sensitization model with Budesonide
Type: in vivo, Brown Norway rats
Settings: for blood level of eotaxin: 6 and 24 hours post challenge

SMILES: CCCC1O[C@@H]2C[C@H]3[C@@H]4CCC5=CC(=O)C=C[C@]5(C)[C@H]4[C@@H](O)C[C@]3(C)[C@]2(C(=O)CO)O1 (stereo partly drawn) [Budesonide]
- blood level of eotaxin (Budesonide 250 μg/kg): only had a notable effect at the later time point
- blood level of eotaxin (Budesonide 750 μg/kg where given): reduced the blood eotaxin levels
- total eosinophil count (blood after ovalbumin challenge, Budesonide 750 μg/Kg where given, versus NS alone): reduced the total eosinophil count
- Eosinophil % (blood after ovalbumin challenge, Budesonide 750 μg/kg where given): did not have a significant effect
- Penh values (immediately after the challenge, Budesonide 500 and 750 μg/kg): failed to significantly affect the Penh values
- tidal volume (immediately after the challenge, Budesonide 500 and 750 μg/kg where given): no change in tidal volumes
